Source: doi:10.1101/2023.04.27.537399
These are yes or no findings as the source states them, for the method shown.

Target: T1, CheV1 (full length, from pKNT25-cheV1) (H. pylori) (UniProt O24864)
T1 sequence: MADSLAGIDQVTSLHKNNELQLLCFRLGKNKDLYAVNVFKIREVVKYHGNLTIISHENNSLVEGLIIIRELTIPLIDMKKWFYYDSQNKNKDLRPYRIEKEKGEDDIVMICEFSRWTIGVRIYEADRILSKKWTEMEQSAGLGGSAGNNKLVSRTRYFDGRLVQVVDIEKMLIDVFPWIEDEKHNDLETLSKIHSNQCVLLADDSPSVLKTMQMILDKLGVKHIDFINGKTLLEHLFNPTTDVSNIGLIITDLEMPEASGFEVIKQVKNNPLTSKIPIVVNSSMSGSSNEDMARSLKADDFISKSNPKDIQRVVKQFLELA
Experiment: two-hybrid

Substance: HPG27_252 (full length) with the adenyl cyclase T18 fragment at the C-terminal end (H. pylori G27)
- binding: no binding
